This assay is described as follows: qHTS Assay for Lipid Storage Modulators in Drosophila S3 Cells.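 For cell number change: cells counted by Cell Tracker Red CMTPX staining in the red channel.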 The conditions noted are these: BODIPY lipid droplet fluorescence, 18-24 h; for cell number change: measured here: cell count max response, cells fed with added oleic acid. The method, boiled down:
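Drosophila S3 cells loaded with oleic acid (400 uM, as added) and compounds at several concentrations; lipid droplets imaged by 488-nm laser-scanning cytometry, 500–530 nm intensity and object ratio to cell channel. Percent activity normalized to 20 uM Triacsin C.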

Setting [1] is: measured here: cell number channel AC50, cells fed with added oleic acid.
Where [2] appears, read: measured here: lipid fluorescence (Fed channel) AC50, cells fed with added oleic acid.

This passage reports cell number change and AC50 results from PubChem BioAssay AID2685 (National Center for Advancing Translational Sciences (NCATS), 2010).

The list shows a part of the results. Shown are side measurements of this screen, not its main read-out; they come without a call. Compounds called inactive in the main read-out are mostly missing here. Words in brackets tell the shape of the fitted curve; partial curves, single points and poor fits give uncertain potencies.

Take `N#Cc1c(NC(=O)C2CCCO2)sc2c1CCCCC2` (stereo not drawn): the cell number change turned out to be 45.5%. Moreover, the AC50 under setting [1] is 32.6 µM [rising, partial curve, poor fit].

Regarding `COc1ccccc1N1C(=O)CC(Sc2n[nH]c(-c3cccc(C)c3)n2)C1=O` (stereo not drawn), the cell number change stood at 28.7%. In addition, the AC50 under setting [2] was 20.6 µM [rising, partial curve, poor fit].

Take `CCC(NS(=O)(=O)c1ccc(C)cc1)C(=O)N1CCC2(O)CCCCC2C1` (stereo not drawn): the cell number change was found to be 15.1%. Further, the half-maximal activity concentration (AC50) under setting [2] was 2.06 µM [falling, partial curve].

As for `Cc1cccc(CSc2nnc3c(n2)[nH]c2ccccc23)c1`, the cell number change was -37.2%. Moreover, the half-maximal activity concentration (AC50) under setting [1] is 29.1 µM [falling, single point]. Moreover, the AC50 under setting [2] is 32.6 µM [falling, single point].

Take `CC(NC(=O)CSc1ncnc2nc[nH]c12)c1ccccc1` (stereo not drawn): the cell number change is -47%. The AC50 under setting [1] is 0.651 µM [falling, full curve, poor fit].

Consider `Cc1cccc(C)c1NC(=O)c1c[nH]c2ccccc12`, for which the cell number change amounted to 12.8%. Further, under setting [2], the AC50 is 14.6 µM [rising, partial curve, poor fit].

As to `CC(=O)Nc1ccc(NS(=O)(=O)c2ccc(Cl)s2)cc1`, the cell number change was 146%. For the same compound, the AC50 under setting [2] was 0.58 µM [rising, single point].

`C=CCn1c(=O)n2ncnc2c2c3c(sc21)CCCC3`: the concentration at half-maximal activity (AC50) is, setting by setting: under setting [1], 0.651 µM [rising, full curve]; under setting [2], 9.2 µM [rising, partial curve].

In the case of `Cc1ccc(N(CC(=O)Nc2cc(C)cc(C)c2)S(=O)(=O)c2c(C)noc2C)cc1`, the cell number change stood at 38.8%. The AC50 under setting [1] is 29.1 µM [rising, single point]. The concentration at half-maximal activity (AC50) under setting [2] was 6.51 µM [falling, single point].

As to `CC(=O)c1cccc(NC(=O)CCS(=O)(=O)c2cccc3nsnc23)c1`, the cell number change turned out to be 13.7%. Moreover, the concentration at half-maximal activity (AC50) under setting [2] is 0.116 µM [falling, full curve, poor fit].

In the case of `O=C(NCCOc1ccccc1)C1CCC(=O)N(CCCN2CCCC2=O)C1` (stereo not drawn), the cell number change stood at 0.578%.

As for `CCOC(=O)Nc1c(C(=O)OC)[nH]c2cccc(OC)c12`, the AC50 runs as follows: under setting [1], 0.164 µM [falling, full curve, poor fit]; under setting [2], 0.731 µM [falling, single point].

Regarding `CC(C)CCNC(=O)COC(=O)/C=C/c1ccc2ccccc2n1`, the cell number change was 30.3%. Also, the AC50 under setting [2] is 0.58 µM [falling, full curve].

On to `O=C(CSc1nc(-c2ccccc2)nc2c1Cc1ccccc1O2)Nc1ccc(C(=O)O)cc1`, for which the cell number change is -22.2%. The AC50 under setting [1] is 0.82 µM [rising, single point].

In the case of `CCn1cc(SCC(N)=O)c2ccccc21`, the cell number change was -71.6%. The AC50 under setting [1] is 29.1 µM [falling, single point]. Further, the AC50 under setting [2] was 29.1 µM [falling, single point].

On to `N#Cc1ccccc1CSc1ncccc1C(=O)O`, for which the cell number change was found to be 6.85%.

Turning to `C=C(C)c1cccc(C(C)(C)NC(=O)Nc2ccc(OC)cc2)c1`, the cell number change came to 30.5%. The AC50 under setting [2] is 0.259 µM [falling, full curve, poor fit].

In the case of `CC(=O)c1cccc(NC(=O)c2ccoc2C)c1`, the cell number change came to 15.5%.

On to `Cc1ccc(Nc2nc3ccccc3[nH]2)nc1`, for which the cell number change is -36.5%. In addition, the AC50 under setting [1] was 16.4 µM [falling, single point]. Besides, under setting [2], the concentration at half-maximal activity (AC50) was 16.4 µM [falling, partial curve].

Regarding `O=C(Nc1ccc(S(=O)(=O)N2CCc3ccccc3C2)cc1)C1CCCO1` (stereo not drawn), the cell number change is 7.66%. Further, the concentration at half-maximal activity (AC50) under setting [1] was 4.61 µM [falling, partial curve, poor fit]. The half-maximal activity concentration (AC50) under setting [2] was 23.1 µM [falling, single point].

As to `Cc1cc(/C=N/NC(=O)COc2cccc3cccnc23)c(C)n1-c1ccc(O)cc1`, the cell number change came out at 22%. Moreover, the AC50 under setting [2] was 6.51 µM [rising, partial curve, poor fit].

For the compound `CC1=C(C(=O)N2CCCC(CCC(=O)NCc3ccccc3F)C2)OCCO1` (stereo not drawn), the cell number change was -18.1%. Further, the AC50 under setting [1] was 2.06 µM [falling, partial curve]. The AC50 under setting [2] was 0.651 µM [falling, single point].

For `CCOC(=O)N1CCN(C(=O)CNC(=O)c2nn(-c3ccc(OC)c(Cl)c3)c(=O)c3ccccc23)CC1`, the cell number change is -42.1%. In addition, under setting [1], the AC50 is 0.731 µM [falling, partial curve].

Regarding `COc1ccccc1OCC(=O)Nc1ccc(S(=O)(=O)Nc2onc(C)c2C)cc1`, the cell number change is 10.4%. Moreover, the AC50 under setting [2] was 6.51 µM [rising, single point].

With `O=C(NCc1ccco1)C(Cc1ccccc1)NS(=O)(=O)c1cccc2nsnc12` (stereo not drawn), the cell number change was found to be 20.9%.

On to `Nc1nc(N)c2sc3nc4c(cc3c2n1)CCC4`, for which the cell number change was found to be 12.3%. Besides, under setting [2], the AC50 is 29.1 µM [rising, single point].

In the case of `CCOC(=O)Cc1sc(N)nc1C`, the cell number change is -0.3%. Besides, the AC50 under setting [2] is 29.1 µM [rising, single point].

On to `COc1ccc(C2SCC(C(=O)O)N2C(C)=O)cc1` (stereo not drawn), for which the cell number change is -67.3%. Also, under setting [1], the AC50 was 16.4 µM [falling, partial curve]. Moreover, the concentration at half-maximal activity (AC50) under setting [2] is 25.9 µM [falling, partial curve].

As to `O=C(CC1C(=O)NCCN1Cc1ccccc1C(F)(F)F)NC1CCC1` (stereo not drawn), the cell number change was 41.7%. Besides, the concentration at half-maximal activity (AC50) under setting [1] was 14.6 µM [rising, partial curve, poor fit]. The concentration at half-maximal activity (AC50) under setting [2] is 4.11 µM [rising, partial curve, poor fit].

As to `CS(=O)(=O)N1CCC(C(=O)NCCN2CCN(Cc3ccccc3)CC2)CC1`, the cell number change was -0.51%.

With `Cc1cc(C)n2nc(C(=O)Nc3ccc4c(c3)OCCO4)nc2n1`, the cell number change came out at 48.5%. For the same compound, the concentration at half-maximal activity (AC50) under setting [1] is 18.4 µM [rising, single point]. Also, the half-maximal activity concentration (AC50) under setting [2] was 29.1 µM [rising, single point].

With `CCC(C)(C(=O)NC1CCCC1)N(C(=O)c1ccccn1)c1ccc(C)cc1` (stereo not drawn), the cell number change is -1.03%. For the same compound, the AC50 under setting [1] is 1.64 µM [falling, partial curve, poor fit]. Also, the AC50 under setting [2] is 4.11 µM [falling, single point].

Take `CCOC(=O)c1nnn(-c2nc(OC)nc(N3CCCC3)n2)c1-c1ccccc1`: the cell number change turned out to be 17.2%. Also, the concentration at half-maximal activity (AC50) under setting [1] was 0.82 µM [rising, full curve, poor fit]. In addition, under setting [2], the AC50 is 1.84 µM [rising, full curve].

Regarding `S=C(NCCCN1CCOCC1)N1CCN(c2cccc(Cl)c2)CC1`, the cell number change is 5.26%.

As to `CCOC(=O)c1c(C)n(C)c2ccc(OCC(O)CN3CCN(C)CC3)cc12` (stereo not drawn), the AC50 under setting [2] was 6.51 µM [rising, single point].

As to `Cc1ccc(C2CC(C(F)(F)F)n3nc(C(=O)NCc4c(C)nn(C)c4C)c(Cl)c3N2)cc1` (stereo not drawn), the cell number change was -20.8%.

As for `O=C1OC(Nc2ccc(F)cc2F)c2ccccc21` (stereo not drawn), the cell number change was -11.9%.

Take `Nc1cccc(-c2cn3cc(C(F)(F)F)cc(Cl)c3n2)c1`: the AC50 is, setting by setting: under setting [1], 1.03 µM [rising, full curve]; under setting [2], 2.91 µM [rising, single point].

As to `Nc1c(C(=O)Nc2ccc3c(c2)OCCO3)nnn1Cc1ccc(Br)cc1`, the cell number change was 100%. Under setting [1], the AC50 is 5.8 µM [rising, partial curve].

`O=C(COC(=O)c1ccc(Oc2ccccc2)cc1)Nc1nnc(-c2ccccc2)o1`: the cell number change was -5.69%. Besides, the AC50 under setting [2] was 16.4 µM [rising, partial curve].

With `O=c1ccc(S(=O)(=O)N2CCCC2)cn1Cc1ccc(Cl)cc1Cl`, the cell number change came out at 3.06%. Under setting [2], the half-maximal activity concentration (AC50) is 2.91 µM [falling, single point].

`COc1cccc(N(C(=O)c2ccco2)C(C(=O)NC2CCCC2)c2ccc(N3CCOCC3)cc2)c1` (stereo not drawn): the cell number change was -5.13%. Further, the AC50 under setting [2] was 5.17 µM [rising, single point].

For `CCn1c(=O)c(C(=O)CN2CCOCC2)c(N)n(Cc2ccccc2)c1=O`, the cell number change stood at 7.33%. Besides, the AC50 under setting [2] is 0.731 µM [rising, single point].

With `Cc1ccc(Cl)cc1N(C)C(=O)Cn1ncc2c([nH]c3ccccc32)c1=O`, under setting [2], the AC50 was 29.1 µM [falling, single point].

Consider `c1ccc(-n2ncc3c(N4CCN(c5ccccn5)CC4)nc(N4CCCCC4)nc32)cc1`, for which the cell number change is -9.86%. In addition, under setting [2], the half-maximal activity concentration (AC50) is 23.1 µM [rising, single point].

With `COCCn1c(SCC(=O)NCC2CCCO2)nc2c(c1=O)SCC2` (stereo not drawn), the cell number change is -31%. Besides, under setting [1], the AC50 was 23.1 µM [falling, single point]. Besides, the AC50 under setting [2] was 2.91 µM [falling, full curve, poor fit].

Turning to `Cc1cccc(OCC(O)CN2CC3(C)CC2CC(C)(C)C3)c1` (stereo not drawn), the cell number change is -30.9%. Also, under setting [1], the half-maximal activity concentration (AC50) is 32.6 µM [falling, single point]. For the same compound, the half-maximal activity concentration (AC50) under setting [2] is 32.6 µM [falling, single point].

Turning to `COc1ccccc1CN1C(=O)[C@@H]2C(CCC(N)=O)NC3(C(=O)Nc4c3ccc(Cl)c4C)[C@@H]2C1=O` (stereo partly drawn), the cell number change turned out to be 30.4%. Further, the AC50 under setting [1] is 2.59 µM [rising, partial curve]. Besides, the half-maximal activity concentration (AC50) under setting [2] is 8.2 µM [rising, partial curve].

With `O=C(CC(Nc1ccccc1Cl)C(=O)O)c1ccccc1` (stereo not drawn), the cell number change is -5.51%.

With `CC(=O)Nc1nonc1NC(=O)CSC1=NCCS1`, the cell number change stood at 11.4%. Besides, under setting [2], the AC50 was 0.92 µM [rising, full curve, poor fit].

For the compound `Cc1cccc(C)c1NC(=O)CSCc1cccc(CSCC(=O)Nc2c(C)cccc2C)n1`, the cell number change was found to be 3.91%. In addition, the AC50 under setting [2] is 6.51 µM [falling, single point].

As for `CCN1CCN(c2ccc(NC(=O)c3ccc4c(c3)OCCO4)cc2C)CC1`, the cell number change was -9%.

In the case of `CC1=CC(C)(C)N(S(=O)(=O)c2ccc(C)cc2)c2ccccc21`, the cell number change worked out at 7.62%. Moreover, under setting [2], the concentration at half-maximal activity (AC50) was 0.116 µM [rising, full curve].

For `Cn1c(=O)c2ccccc2n2c(CCl)nnc12`, the cell number change came to 10.5%.

As for `CCC(=O)Nc1ccc(C(=O)NNC(=O)C(c2ccccc2)c2ccccc2)cc1`, the cell number change was -34.8%. In addition, under setting [1], the AC50 was 14.6 µM [falling, single point]. In addition, under setting [2], the concentration at half-maximal activity (AC50) is 29.1 µM [falling, single point].

For the compound `Cn1c(SCC(=O)Nc2nccs2)nnc1-c1ccc(S(=O)(=O)N2CCCC2)cc1`, the cell number change is 35.5%. For the same compound, under setting [1], the AC50 was 6.51 µM [rising, full curve, poor fit]. The half-maximal activity concentration (AC50) under setting [2] was 14.6 µM [falling, partial curve, poor fit].

`Fc1ccc(SCCc2ccccn2)cc1`: the cell number change stood at 18%. Moreover, the AC50 under setting [2] was 0.82 µM [rising, full curve, poor fit].

`CCOc1ccc(S(=O)(=O)NCCC(=O)NCC2(N3CCCCC3)CCCCC2)cc1`: the cell number change is -24.8%.
